Some of these results come from one statement about several compounds together. For at least one compound, name, drawing or mass did not settle the structure.
Each compound was assayed against NTR1 (Homo sapiens, UniProt P30989) (assay: ^125I-NT binding to PC3 cells). Details: as much as / up to, dose-response.

By UniProt entry, the sequences of proteins in these tests, tags left out.
UniProt P30989, whole entry: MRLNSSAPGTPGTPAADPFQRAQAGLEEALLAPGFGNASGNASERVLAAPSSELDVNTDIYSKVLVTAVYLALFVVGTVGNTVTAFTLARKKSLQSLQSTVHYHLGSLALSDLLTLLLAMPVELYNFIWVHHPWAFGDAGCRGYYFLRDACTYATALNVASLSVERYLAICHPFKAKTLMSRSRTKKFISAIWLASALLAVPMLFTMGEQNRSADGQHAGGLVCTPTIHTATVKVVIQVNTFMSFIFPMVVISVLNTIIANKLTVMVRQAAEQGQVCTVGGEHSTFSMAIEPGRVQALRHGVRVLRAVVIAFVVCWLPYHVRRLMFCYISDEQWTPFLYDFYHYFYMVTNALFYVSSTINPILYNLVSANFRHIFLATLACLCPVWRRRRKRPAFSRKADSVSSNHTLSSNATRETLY

Compound	maximal increase in NT binding to PC3 cells
O=C(CCc1ccc(O)cc1)c1c(O)cc(O)cc1O [Phloretin]	up to 2.9 fold
C=C(C)[C@H]1Cc2c(ccc3c2O[C@@H]2COc4cc(OC)c(OC)cc4[C@@H]2C3=O)O1 [rotenone]	≤ 3 fold
Cc1cc2c(C(C)C)c(O)c(O)c(C=O)c2c(O)c1-c1c(C)cc2c(C(C)C)c(O)c(O)c(C=O)c2c1O [Gossypol, gossypol]	≤ 2.6 fold
CCNC(=O)[C@H]1O[C@@H](n2cnc3c(N)nc(NCCc4ccc(CCC(=O)O)cc4)nc32)[C@H](O)[C@@H]1O [CGS21683]	≤ 2.2 fold

Reference: patent US20060062729A1, “Enhanced ligand binding to neurotensin receptors” (priority 2004, published 2006)
